Some of the results follow.
How the values were obtained:
Test in all cases: log2 fold change, soluble protein after heating vs DMSO (PISA); higher = thermal stabilisation; K562 cells, 10 uM, 30 min; active = over 0.2 and 3.5 SD of the protein, either way, in both replicates (recomputed)
[1] = compound: C1=CC=C(C=C1)[C@H](COC2=CC3=C(C=C2)NC(=O)N3)NC(=O)C4=CC=CN(C4=O)CC5=CC(=C(C=C5)F)F
Procedure, shortened: (§1)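 Thermal stability values are relative to control samples and come from duplicates. They are expressed as log2 fold changes. For measurement, K562 cells (2×10^6 cells/mL) received 10 μM compound for 30 min, and aliquots were heated for 3 min over 48°C-58°C, pooled, and extracted at 4°C in PBS with 0.5% NP-40. Soluble protein, the supernatant after 21,000xg for 90 min, was quantified by TMTpro 16plex LC-MS/MS with equalised channel sums.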

Amino acid sequences for entries named in this document (tags omitted). A change or cut given only in a name is not applied to a line headed by its entry.
UniProt Q7Z3T8: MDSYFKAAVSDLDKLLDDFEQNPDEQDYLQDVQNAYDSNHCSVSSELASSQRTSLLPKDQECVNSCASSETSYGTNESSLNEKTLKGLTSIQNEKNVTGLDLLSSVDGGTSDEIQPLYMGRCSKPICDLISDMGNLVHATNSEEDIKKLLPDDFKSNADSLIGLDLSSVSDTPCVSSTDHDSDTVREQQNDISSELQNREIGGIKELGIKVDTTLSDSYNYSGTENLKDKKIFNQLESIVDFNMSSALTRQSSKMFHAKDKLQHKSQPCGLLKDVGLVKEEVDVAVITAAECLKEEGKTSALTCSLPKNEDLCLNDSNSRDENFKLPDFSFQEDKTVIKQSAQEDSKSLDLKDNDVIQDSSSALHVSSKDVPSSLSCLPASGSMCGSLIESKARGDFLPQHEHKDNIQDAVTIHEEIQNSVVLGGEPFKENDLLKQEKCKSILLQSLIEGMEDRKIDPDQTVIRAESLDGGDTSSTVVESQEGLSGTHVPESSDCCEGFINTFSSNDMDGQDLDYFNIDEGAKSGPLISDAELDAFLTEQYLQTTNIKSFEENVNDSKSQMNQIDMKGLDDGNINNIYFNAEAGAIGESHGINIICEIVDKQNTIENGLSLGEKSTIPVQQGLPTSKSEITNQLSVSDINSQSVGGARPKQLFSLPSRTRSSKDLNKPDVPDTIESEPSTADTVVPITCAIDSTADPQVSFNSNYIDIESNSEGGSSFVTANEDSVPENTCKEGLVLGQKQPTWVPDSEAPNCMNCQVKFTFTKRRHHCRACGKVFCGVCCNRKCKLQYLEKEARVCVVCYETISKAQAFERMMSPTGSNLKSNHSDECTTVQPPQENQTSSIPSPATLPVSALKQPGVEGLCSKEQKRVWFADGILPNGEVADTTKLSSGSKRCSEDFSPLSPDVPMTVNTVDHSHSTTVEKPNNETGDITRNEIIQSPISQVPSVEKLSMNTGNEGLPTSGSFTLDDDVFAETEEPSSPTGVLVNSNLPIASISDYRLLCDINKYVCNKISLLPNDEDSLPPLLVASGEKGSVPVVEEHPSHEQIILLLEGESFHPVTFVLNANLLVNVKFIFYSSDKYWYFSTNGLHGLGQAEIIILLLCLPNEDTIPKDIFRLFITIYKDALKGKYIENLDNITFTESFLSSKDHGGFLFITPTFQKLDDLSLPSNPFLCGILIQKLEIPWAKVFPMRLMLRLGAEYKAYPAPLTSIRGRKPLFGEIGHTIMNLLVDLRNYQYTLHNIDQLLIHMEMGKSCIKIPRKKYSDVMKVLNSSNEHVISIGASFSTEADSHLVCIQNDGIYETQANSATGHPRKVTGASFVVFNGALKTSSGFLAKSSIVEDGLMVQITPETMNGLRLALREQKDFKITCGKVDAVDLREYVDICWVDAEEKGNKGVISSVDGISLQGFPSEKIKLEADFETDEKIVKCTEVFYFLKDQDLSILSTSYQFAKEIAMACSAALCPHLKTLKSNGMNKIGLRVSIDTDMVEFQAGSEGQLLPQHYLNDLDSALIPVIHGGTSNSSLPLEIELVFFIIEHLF
UniProt Q9GZM5: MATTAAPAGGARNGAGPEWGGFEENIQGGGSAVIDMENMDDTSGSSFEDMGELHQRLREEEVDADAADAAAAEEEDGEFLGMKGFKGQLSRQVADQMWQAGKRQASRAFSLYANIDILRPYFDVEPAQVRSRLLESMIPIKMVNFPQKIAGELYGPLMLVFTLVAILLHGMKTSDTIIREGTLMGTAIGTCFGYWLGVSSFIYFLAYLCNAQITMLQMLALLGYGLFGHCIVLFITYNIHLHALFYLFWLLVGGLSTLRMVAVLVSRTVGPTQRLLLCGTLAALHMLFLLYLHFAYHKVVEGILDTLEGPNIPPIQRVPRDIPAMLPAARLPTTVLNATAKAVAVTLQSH
UniProt Q96NC0: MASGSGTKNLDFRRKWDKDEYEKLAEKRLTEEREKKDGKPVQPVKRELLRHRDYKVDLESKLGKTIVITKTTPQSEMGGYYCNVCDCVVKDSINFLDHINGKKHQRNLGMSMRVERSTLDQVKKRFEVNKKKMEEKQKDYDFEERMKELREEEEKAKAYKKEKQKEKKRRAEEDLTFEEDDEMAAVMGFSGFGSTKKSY
UniProt O43542: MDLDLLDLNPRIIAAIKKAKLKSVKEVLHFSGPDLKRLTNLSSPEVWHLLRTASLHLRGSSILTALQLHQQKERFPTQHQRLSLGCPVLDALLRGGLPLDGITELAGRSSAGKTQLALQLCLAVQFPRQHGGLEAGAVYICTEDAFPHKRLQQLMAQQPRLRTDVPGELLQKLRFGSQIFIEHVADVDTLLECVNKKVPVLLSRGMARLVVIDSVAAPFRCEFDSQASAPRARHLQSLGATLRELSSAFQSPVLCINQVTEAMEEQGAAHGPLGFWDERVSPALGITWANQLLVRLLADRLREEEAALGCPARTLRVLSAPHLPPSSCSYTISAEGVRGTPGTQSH
UniProt Q96EC8: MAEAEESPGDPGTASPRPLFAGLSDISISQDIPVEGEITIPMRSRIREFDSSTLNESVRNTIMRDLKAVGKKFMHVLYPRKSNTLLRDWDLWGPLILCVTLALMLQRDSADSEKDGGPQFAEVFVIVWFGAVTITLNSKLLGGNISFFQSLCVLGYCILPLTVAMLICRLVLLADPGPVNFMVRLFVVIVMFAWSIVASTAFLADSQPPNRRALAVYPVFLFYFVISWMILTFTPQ
UniProt Q8N5P1: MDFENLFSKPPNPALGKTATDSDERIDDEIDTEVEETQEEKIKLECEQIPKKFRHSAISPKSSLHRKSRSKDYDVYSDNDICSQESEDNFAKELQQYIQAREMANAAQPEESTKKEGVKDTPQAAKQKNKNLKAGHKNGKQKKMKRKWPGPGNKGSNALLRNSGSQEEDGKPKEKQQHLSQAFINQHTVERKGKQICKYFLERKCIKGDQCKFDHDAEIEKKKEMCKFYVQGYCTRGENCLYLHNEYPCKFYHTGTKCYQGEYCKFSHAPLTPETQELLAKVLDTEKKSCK
UniProt O95619, whole entry, looked up: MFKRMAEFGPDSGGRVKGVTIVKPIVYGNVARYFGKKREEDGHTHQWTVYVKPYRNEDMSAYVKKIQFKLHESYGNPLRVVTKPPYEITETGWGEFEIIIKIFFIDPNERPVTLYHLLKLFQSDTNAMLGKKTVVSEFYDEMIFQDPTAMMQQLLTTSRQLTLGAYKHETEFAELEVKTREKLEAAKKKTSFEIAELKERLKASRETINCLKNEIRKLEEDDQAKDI
UniProt Q8IY57: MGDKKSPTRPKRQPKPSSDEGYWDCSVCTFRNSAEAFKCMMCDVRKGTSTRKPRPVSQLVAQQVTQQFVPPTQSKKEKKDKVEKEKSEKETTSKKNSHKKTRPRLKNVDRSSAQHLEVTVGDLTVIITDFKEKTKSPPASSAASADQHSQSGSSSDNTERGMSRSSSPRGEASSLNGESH
UniProt Q8IZN3: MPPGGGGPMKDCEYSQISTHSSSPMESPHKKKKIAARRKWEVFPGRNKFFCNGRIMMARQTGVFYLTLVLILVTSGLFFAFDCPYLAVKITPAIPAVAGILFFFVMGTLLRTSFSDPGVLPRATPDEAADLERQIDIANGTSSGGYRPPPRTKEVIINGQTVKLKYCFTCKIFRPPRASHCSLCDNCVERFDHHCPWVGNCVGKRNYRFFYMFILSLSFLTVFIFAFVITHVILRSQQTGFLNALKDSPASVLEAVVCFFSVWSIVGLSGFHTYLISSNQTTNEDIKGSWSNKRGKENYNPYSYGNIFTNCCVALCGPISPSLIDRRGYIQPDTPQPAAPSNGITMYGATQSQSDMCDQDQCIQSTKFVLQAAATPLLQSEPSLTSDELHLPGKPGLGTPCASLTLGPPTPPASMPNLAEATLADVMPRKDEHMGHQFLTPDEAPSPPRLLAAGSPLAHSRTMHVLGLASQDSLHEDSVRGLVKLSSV
UniProt P16989, whole entry, looked up: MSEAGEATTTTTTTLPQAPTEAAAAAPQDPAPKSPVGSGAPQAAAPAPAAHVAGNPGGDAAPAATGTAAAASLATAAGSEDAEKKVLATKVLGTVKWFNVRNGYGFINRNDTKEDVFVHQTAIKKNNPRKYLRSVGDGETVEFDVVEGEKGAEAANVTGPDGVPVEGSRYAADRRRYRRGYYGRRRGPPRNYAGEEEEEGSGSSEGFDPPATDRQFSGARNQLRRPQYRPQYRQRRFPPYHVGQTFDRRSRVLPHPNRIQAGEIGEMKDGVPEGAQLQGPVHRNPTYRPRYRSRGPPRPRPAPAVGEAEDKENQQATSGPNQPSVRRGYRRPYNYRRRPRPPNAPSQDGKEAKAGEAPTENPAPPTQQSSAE
UniProt Q8IUH5: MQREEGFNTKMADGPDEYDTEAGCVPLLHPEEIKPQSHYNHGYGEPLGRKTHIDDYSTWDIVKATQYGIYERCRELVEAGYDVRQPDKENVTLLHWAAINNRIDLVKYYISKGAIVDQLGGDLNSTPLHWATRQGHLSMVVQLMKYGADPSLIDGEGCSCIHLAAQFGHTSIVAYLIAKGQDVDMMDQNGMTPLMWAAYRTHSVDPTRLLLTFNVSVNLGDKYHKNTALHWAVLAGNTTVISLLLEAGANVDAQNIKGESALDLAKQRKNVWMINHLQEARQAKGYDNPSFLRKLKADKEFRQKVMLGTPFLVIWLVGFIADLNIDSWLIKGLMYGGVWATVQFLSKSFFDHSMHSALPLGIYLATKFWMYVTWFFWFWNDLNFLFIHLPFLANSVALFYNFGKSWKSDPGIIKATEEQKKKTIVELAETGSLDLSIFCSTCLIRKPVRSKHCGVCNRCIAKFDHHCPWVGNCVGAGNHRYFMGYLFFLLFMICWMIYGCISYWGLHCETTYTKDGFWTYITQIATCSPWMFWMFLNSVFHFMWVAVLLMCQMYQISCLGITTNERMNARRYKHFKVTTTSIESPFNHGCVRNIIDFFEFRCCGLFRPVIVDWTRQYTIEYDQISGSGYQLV
UniProt Q96KR1: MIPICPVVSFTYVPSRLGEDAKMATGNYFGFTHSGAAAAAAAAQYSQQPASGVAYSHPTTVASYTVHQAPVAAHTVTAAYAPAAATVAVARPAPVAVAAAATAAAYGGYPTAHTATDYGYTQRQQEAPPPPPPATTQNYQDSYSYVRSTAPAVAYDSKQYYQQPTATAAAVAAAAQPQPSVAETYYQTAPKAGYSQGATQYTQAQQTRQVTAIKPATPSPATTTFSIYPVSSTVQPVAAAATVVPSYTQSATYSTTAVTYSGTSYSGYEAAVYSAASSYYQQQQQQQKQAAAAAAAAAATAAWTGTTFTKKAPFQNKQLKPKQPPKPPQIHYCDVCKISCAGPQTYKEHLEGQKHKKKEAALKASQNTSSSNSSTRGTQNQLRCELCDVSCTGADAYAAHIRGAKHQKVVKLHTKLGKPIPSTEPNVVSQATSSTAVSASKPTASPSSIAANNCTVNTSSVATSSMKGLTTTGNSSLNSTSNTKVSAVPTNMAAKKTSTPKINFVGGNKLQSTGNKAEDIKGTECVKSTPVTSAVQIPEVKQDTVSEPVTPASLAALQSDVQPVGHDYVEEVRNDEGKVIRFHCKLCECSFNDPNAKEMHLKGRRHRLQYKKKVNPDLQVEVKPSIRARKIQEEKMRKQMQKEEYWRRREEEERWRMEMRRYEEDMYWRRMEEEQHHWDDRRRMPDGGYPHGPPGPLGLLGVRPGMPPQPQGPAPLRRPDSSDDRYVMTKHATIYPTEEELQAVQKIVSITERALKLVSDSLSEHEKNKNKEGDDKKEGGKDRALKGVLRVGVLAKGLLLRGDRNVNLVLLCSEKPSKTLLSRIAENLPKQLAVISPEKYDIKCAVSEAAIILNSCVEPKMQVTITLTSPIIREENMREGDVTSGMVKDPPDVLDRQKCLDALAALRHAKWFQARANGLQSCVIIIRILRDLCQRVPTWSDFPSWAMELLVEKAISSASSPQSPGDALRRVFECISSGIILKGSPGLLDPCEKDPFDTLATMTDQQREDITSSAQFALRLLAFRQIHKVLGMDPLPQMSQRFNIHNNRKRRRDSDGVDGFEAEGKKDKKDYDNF
UniProt Q9BW85: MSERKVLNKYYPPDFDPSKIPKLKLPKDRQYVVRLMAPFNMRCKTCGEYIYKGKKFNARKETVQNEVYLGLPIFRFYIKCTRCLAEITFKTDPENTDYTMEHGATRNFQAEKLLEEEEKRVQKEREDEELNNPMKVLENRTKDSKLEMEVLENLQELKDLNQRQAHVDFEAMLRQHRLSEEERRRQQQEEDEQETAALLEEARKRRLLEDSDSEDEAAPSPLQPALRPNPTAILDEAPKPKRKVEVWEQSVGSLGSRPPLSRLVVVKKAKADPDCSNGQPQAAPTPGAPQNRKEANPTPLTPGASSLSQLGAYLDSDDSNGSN
UniProt A8MPS7: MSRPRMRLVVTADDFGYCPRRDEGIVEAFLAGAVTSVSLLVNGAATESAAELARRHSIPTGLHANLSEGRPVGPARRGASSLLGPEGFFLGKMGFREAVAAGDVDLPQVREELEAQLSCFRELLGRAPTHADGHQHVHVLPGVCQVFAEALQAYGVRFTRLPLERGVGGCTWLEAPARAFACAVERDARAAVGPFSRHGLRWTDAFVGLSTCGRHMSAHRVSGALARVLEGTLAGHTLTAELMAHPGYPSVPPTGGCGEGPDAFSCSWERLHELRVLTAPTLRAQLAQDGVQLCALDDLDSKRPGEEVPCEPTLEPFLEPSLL

[2] = compound: CC1=C(SC2=C1C(=N[C@H](C3=NN=C(N32)C)CC(=O)N)C4=CC=C(C=C4)Cl)C
Procedure, shortened: as §1

[3] = compound: CC1=C2C(=CC=C1)N=C(N(C2=O)C3=CC=CC=C3C)CN4C=NC5=C(N=CN=C54)N
Procedure, shortened: as §1

[4] = compound: Cc1sc2c(c1C)C(c1ccc(Cl)cc1)=N[C@@H](CC(=O)OC(C)(C)C)c1nnc(C)n1-2
Procedure, shortened: as §1

[5] = compound: c1ccc([C@@H]2C[C@H]2NC2CCNCC2)cc1
Procedure, shortened: as §1

Measured: log2 fold change

XPO7 (UniProt E7ESC6)
inactive: [1] 0.003 | [2] 0.047 | [3] 0.005 | [4] -0.009 | [5] -0.014

ZFYVE16 (UniProt Q7Z3T8)
inactive: [1] 0.003 | [2] 0.054 | [3] 0.031 | [4] -0.008 | [5] -0.007

YIPF3 (UniProt Q9GZM5)
inactive: [1] 0.01 | [2] 0.021 | [3] 0.016 | [4] -0.033 | [5] 0.02

ZMAT2 (UniProt Q96NC0)
inactive: [1] 0.029 | [2] -0.025 | [3] -0.009 | [4] -0.042 | [5] -0.016

XRCC3 (UniProt O43542)
inactive: [1] -0.007 | [2] 0.066 | [3] -0.004 | [4] -0.011 | [5] -0.002

YTHDF3 (UniProt Q7Z739)
inactive: [1] 0.007 | [2] 0.024 | [3] 0.081 | [4] -0.007 | [5] 0.003

YIPF6 (UniProt Q96EC8)
inactive: [1] 0.062 | [2] -0.04 | [3] 0.114 | [4] 0.103 | [5] 0.015

ZC3H8 (UniProt Q8N5P1)
inactive: [1] 0.095 | [2] -0.089 | [3] -0.084 | [4] 0.091 | [5] 0

YEATS4 (UniProt O95619)
inactive: [1] -0.006 | [2] -0.015 | [3] -0.007 | [4] 0.045 | [5] 0.077

ZC3H15 (UniProt Q8WU90)
inactive: [1] 0.041 | [2] -0.041 | [3] -0.041 | [4] 0.043 | [5] 0.032

YAF2 isoform 5 (UniProt Q8IY57)
inactive: [1] 0.034 | [2] -0.04 | [3] 0.072 | [4] -0.029 | [5] 0.024

ZDHHC14 (UniProt Q8IZN3)
inactive: [1] 0.111 | [2] 0.036 | [3] 0.177 | [4] 0.023 | [5] -0.061

YIF1B (UniProt Q5BJH7)
inactive: [1] -0.054 | [2] -0.294 | [3] -0.009 | [4] -0.061 | [5] -0.153

YBX3 (UniProt P16989)
inactive: [1] 0.138 | [2] -0.191 | [3] -0.123 | [4] 0.196 | [5] 0.022

ZEB1 isoform 2 (UniProt P37275)
inactive: [1] -0.12 | [2] 0.004 | [3] -0.065 | [4] -0.071 | [5] 0

ZMYM4 (UniProt Q5VZL5)
inactive: [1] -0.076 | [2] 0.021 | [3] 0.085 | [4] -0.041 | [5] 0.334

ZDHHC17 (UniProt Q8IUH5)
inactive: [1] 0.014 | [2] 0.062 | [3] -0.082 | [4] -0.039 | [5] -0.011

ZC3H13 (UniProt Q5T200)
inactive: [1] -0.03 | [2] 0.008 | [3] 0.313 | [4] 0.169 | [5] 0.183

Fetched one by one from above (two):
ZDHHC17 (UniProt Q8IUH5)
inactive: [1] 0.014 | [2] 0.062 | [3] -0.082 | [4] -0.039 | [5] -0.011

ZMAT2 (UniProt Q96NC0)
inactive: [1] 0.029 | [2] -0.025 | [3] -0.009 | [4] -0.042 | [5] -0.016

Remaining list, next part

ZFR (UniProt Q96KR1)
inactive: [1] 0.009 | [2] -0.007 | [3] -0.205 | [4] 0.151 | [5] 0.18

YJU2 (UniProt Q9BW85)
inactive: [1] -0.041 | [2] 0 | [3] 0.058 | [4] -0.02 | [5] 0.047

YLPM1 (UniProt P49750)
inactive: [1] -0.092 | [2] 0.11 | [3] 0.104 | [4] 0.005 | [5] -0.052

ZFYVE1 (UniProt Q9HBF4)
inactive: [1] -0.039 | [2] -0.017 | [3] 0.119 | [4] 0.011 | [5] 0.014

ZFPM1 (UniProt Q8IX07)
inactive: [1] -0.196 | [2] 0.093 | [3] 0.017 | [4] -0.198 | [5] 0.103

YDJC (UniProt A8MPS7)
inactive: [1] 0.069 | [2] 0.01 | [3] 0.056 | [4] -0.007 | [5] -0.074
